# Primary screen of a compound library

From ChEMBL document CHEMBL3988442, “University of Dundee, Small-Polar-MMV Screening Library” (2021).

Each number is a percent effect as filed. The record does not define 0% and 100%; most values in the screen are far below 50% and negative numbers occur (in some assays of this library far below -100). This is an unselected part of the compounds tested. A dash means the value is not listed here; it may have been measured.

Mtb growth Cornell: 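Whole-cell assay for inhibitors of Mycobacterium tuberculosis growth, labelled Cornell in the record; the read-out is not stated. The concentration is filed as 10 mM, unlikely as a test dose, so the dose is not known. Higher means stronger inhibition (inferred from two other growth screens of the library). Size under these conditions: about 53,000 compounds, about 900 of them at 50% or above in at least one test.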
Mtb heat-shock: 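Assay on Mycobacterium tuberculosis, filed only as a heat shock assay from Cornell; the read-out is not stated. The concentration is filed as 10 mM, unlikely as a test dose, so the dose is not known. The record gives no direction; compounds that gave an IC50 in retests scored well above the rest, so higher reads as stronger inhibition. Of about 69,000 compounds tested this way, about 930 (1.4%) reached 50% or more in at least one test.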

compound,Mtb growth Cornell,Mtb heat-shock
CC(C)c1nc(CN2CCOC(Cn3cncn3)C2)no1 (stereo unspecified),-,-6.252%
Cc1occc(=O)c1OCc1noc(C(=O)NCC2CC2)n1,-45.31%,2.55%
CC(C)(NCc1cccc(O)c1)c1ccc2c(c1)OCO2,19.62%,-21.95%
CS(=O)(=O)NCc1cc(-c2cc(F)cc(F)c2)nc(N2CC[C@H](O)C2)n1,5.27%,-0.07379%
CCN(C)CC1CCN(C(=O)Nc2ccc(-c3cc[nH]n3)cc2)C1 (stereo unspecified),-,-21.11%
Cc1cnn(C2CCCN(C(=O)c3sccc3-n3cnnn3)C2)c1 (stereo unspecified),10.25%,6.293%
Cc1nc(N2CCOCC2)ncc1-c1cc(O)nc(N2CCCCC2)n1,-,-7.482%
Cc1nc(CC(=O)N2CCN(CCOc3ccccc3)CC2)cs1,-,-13.17%
CN(Cc1ccc(C#N)cc1)Cc1noc(C(C)(C)C)n1,24.93%,-2.315%
Cc1nc(CCCC(=O)Nc2cccc(N3CCNC3=O)c2)cs1,5.91%,6.135%
CCN(CC)CC(=O)N(C)C(c1cccc(F)c1)c1ccccn1 (stereo unspecified),-,-23.1%
COc1cccc(CN2CCC(c3nn(CCN)c4nccnc34)C2)c1 (stereo unspecified),-33.21%,-30.77%
O=C(Cc1ccsc1)N1Cc2nc(CN3CCCCC3)oc2C1.O=C(O)C(F)(F)F,7.992%,-1.961%
COc1ccc(C)cc1-c1[nH]c2ccccc2c1C(=O)O,-,-22.02%
CN(C)C(=O)C1CCN(C(=O)c2c[nH]c3cc(Cl)ccc23)CC1,-,3.024%
N#CCCN(Cc1cccnc1)C(=O)c1ccc(OCC2CC2)cc1,-7.661%,6.663%
NC(=O)CCn1ccc(NC(=O)c2ccc(Br)o2)n1,-8.667%,-12.1%
Cc1nc(C2CCN(C)CC2)cc(N2CCOc3ccc(Cl)cc3C2)n1,12.49%,-13.3%
CN(Cc1ccc(Cl)c(F)c1)C(=O)c1ccncc1F,10.15%,6.591%
CN1CCN(C[C@@H]2CN(C(=O)CC3CCCCC3)C[C@@H]2CO)CC1,-14.12%,-14.94%
[H][C@]12CC[C@]([H])(CN(Cc3cscn3)C1)N(Cc1cc(CC(C)C)[nH]n1)C2,-31.97%,107.7%
COCCOCC(=O)NC1CCN(c2ccccn2)CC1,-7.586%,-0.3919%
O=C(NCC1CCN(Cc2ccsc2)CC1)NC1CC1,1.822%,-13.09%
CCc1nc(C)c(C(=O)NCCNc2ncccn2)s1,23.79%,-2.514%
CNc1cc(C)nc(C2CN(Cc3cncs3)CCO2)c1 (stereo unspecified),-17.74%,-8.383%
COCC1c2c(cnn2CC2CC2)CCN1Cc1ccc(C)o1.O=C(O)C(F)(F)F.O=C(O)C(F)(F)F (stereo unspecified),31.7%,-5.958%
O=c1cc(CN2CCCC2)nc2n1CCCN(Cc1ccsc1)C2,-,-27.96%
CS(=O)(=O)NCc1nnc2n1CCN(Cc1cccs1)CC2.O=C(O)C(F)(F)F,4.493%,-6.108%
CCN(Cc1c(F)cccc1F)C(=O)c1ccncc1O,-,-0.4411%
[H][C@@]12CCN(C[C@@H]1CN(C)c1ccccc1)[C@@H](CNC(=O)COC)C2,-8.614%,-7.115%
Cc1nn(C)c(C)c1CC(=O)N1CCC(N(C)c2cccnn2)CC1,-,-10.87%
CCCS(=O)(=O)N1CCc2nc(N3CCOCC3)nc(N(C)C)c2C1,-16.76%,-33.72%
O=C(c1ccoc1)N1CCn2cnc(COCC3CC3)c2C1,0.4776%,1.475%
Cc1ccc(CNC2(Cc3cc(C(C)(C)O)on3)COC2)o1,17.29%,-22.61%
CN(C)c1ncccc1CNS(=O)(=O)c1ccc(F)c(F)c1,-,-19.02%
Cc1ccc(O)c(CN2CCn3nc(C(=O)N4CCCC4)cc3C2)n1,-1.142%,-9.224%
O=C(NCCc1cccnc1)c1cn(CCN2CCNCC2)nn1,10.29%,-42.4%
Cc1cc(N2CCC(Cc3cccnc3)C2)ncn1 (stereo unspecified),-10.91%,-7.761%
CC(C)C1CN(S(=O)(=O)N2CCCC2)CCCN1Cc1ccc(F)cc1 (stereo unspecified),20.89%,-17.16%
CC(C)c1noc(CS(=O)(=O)CC(=O)NCC(F)(F)F)n1,-,45.89%
CCOCCCC(=O)NC1CCN(C(C)c2ccccc2)CC1 (stereo unspecified),-4.762%,-8.062%
Cc1cccc(-c2noc(CN3CCCC3Cn3cccn3)n2)c1 (stereo unspecified),-,11.12%
Cn1cc(C(=O)Nc2ccnc(Oc3ccccc3)c2)ccc1=O,-,-16.39%
CC(NCCN1CCN(C(=O)C2CCCC2)CC1)c1nccs1 (stereo unspecified),11.53%,-17.51%
O=C(O)C(F)(F)F.O=C(c1ccc[nH]1)N1CCCn2c(CNC3CCC3)nnc2C1,-15.45%,92.9%
CSc1ccc2cc(CN(C)CCc3cn[nH]c3)c(=O)[nH]c2c1,-9.851%,-6.427%
O=C(O)C(F)(F)F.O=C(O)C(F)(F)F.O=C(O)C(F)(F)F.[H][C@@]12CN(Cc3nccs3)C[C@H](C(=O)Nc3cccnc3)[C@]1([H])CCO2,-,-17.52%
CSCCCN1CCCC(Cn2ccnc2)C1 (stereo unspecified),-20.27%,12.46%
CCS(=O)(=O)N1CCCC2(COCCN(c3nncs3)C2)C1 (stereo unspecified),-33.37%,-15.92%
O=C1CC(c2ccsc2)c2snc(C(=O)O)c2N1 (stereo unspecified),3.768%,6.551%
CNS(=O)(=O)CC(=O)N1CCCc2cc(Br)ccc21,-18.99%,-4.527%
COC(=O)c1ccc(C2SCC(=O)Nc3ccsc32)cc1 (stereo unspecified),-33.29%,-1.752%
CCCc1nnc([C@H]2CCN(Cc3ncc[nH]3)C2)o1,-,4.849%
COc1ccccc1CNC(=O)C(C)N1CC(n2nc(C)cc2C)C1 (stereo unspecified),9.227%,-7.346%
Cc1cccnc1C(Cc1ccsc1)NC(=O)Cn1cccnc1=O (stereo unspecified),-5.181%,-0.9287%
NS(=O)(=O)Cc1ccc(CNC(=O)NCC2CCOC2)cc1 (stereo unspecified),-,-4.522%
O=C(O)c1cccnc1CN1CCCCC1CCc1ccccn1 (stereo unspecified),-,-15.11%
O=C(O)C(F)(F)F.O=C(O)C(F)(F)F.[H][C@@]12OCCN(C(=O)c3cncc(C)c3)[C@@]1([H])CC[C@H]2Oc1ccccn1,17.89%,-7.307%
CCN1CCc2nc(N3CCOCC3)nc(NC(C)C)c2C1,16.58%,8.22%
O=c1[nH]c2c(-c3ccccn3)nsc2c(=O)n1CC1CCCO1 (stereo unspecified),-0.9245%,0.7291%
CCC1=NN2C(=N)/C(=C\c3cccn3-c3cccc(Cl)c3)C(=O)N=C2S1,-,5.337%
Cn1cc(S(=O)(=O)Nc2ccc(Cl)cn2)cc1C(N)=O,-12.5%,-15.15%
CCC(NC(=O)C1CCN(S(C)(=O)=O)CC1)c1ccc(C)cc1 (stereo unspecified),16.59%,6.28%
O=C(Nc1ccc(CC(=O)N2CCSCC2)cc1)NC1CC1,-59.9%,-4.169%
Cc1cc(NC(=O)c2nc(N3CCCC3)ncc2Cl)nc(C(C)C)n1,24.2%,105.6%
Cc1ccc(CN2Cc3nnn(C)c3C(COCc3ccccn3)C2)s1.O=C(O)C(F)(F)F.O=C(O)C(F)(F)F (stereo unspecified),-,-10.17%
Cc1nc(CCN(C)C(=O)CCNC(=O)c2ccccc2F)no1,-,8.346%
Cc1cc(NC(=O)CNC(C)(C)c2nc(C)c(C)s2)no1,22.98%,-26.54%
Cc1ccc(C2COCCN2C(=O)c2ccc(CN(C)C)cc2)o1 (stereo unspecified),9.706%,3.782%
CNC(=O)c1ccccc1-c1ccc(S(C)(=O)=O)cc1,-3.847%,17.06%
COCc1nc2n(n1)CCCC2Nc1nc(C)ns1 (stereo unspecified),0.3788%,-5.916%
Cc1nc(CN2CCc3cncnc3C2)oc1C,-5.165%,3.75%
Cc1ccc(C(C)NC(=O)N2CCN(C(=O)CC(F)(F)F)CC2)o1 (stereo unspecified),9.241%,-0.5201%
O=C(NCc1cccc(F)c1)N1CCc2ncnc(NC3CC3)c2CC1,12.55%,0.1141%
COCC1COCCC12CCN(C(=O)Cc1ccc(F)cc1)CC2 (stereo unspecified),2.924%,-22.74%
CN(C)C(=O)CCNC(=O)NCc1ccc(Br)cc1Cl,-6.9%,5.279%
Cl.O=C(NC[C@@]1(COc2cnccn2)C[C@@H](O)[C@@H](O)C1)C1CC1,-15.26%,-13.39%
CCN(CC1CCCO1)C(=O)Nc1cccc(Cl)c1OC (stereo unspecified),-48%,-7.376%
COCc1cc(NCc2ccccc2OC)ncn1,-2.329%,-10.92%
Fc1ccccc1Oc1nccnc1C1CCN(C2CCOCC2)CC1,-17.49%,-0.4861%
CCOCCNC(=O)c1cccnc1Sc1cc(OC)ccc1OC,-25.34%,18.16%
O=C(O)C(F)(F)F.O=C(O)C(F)(F)F.[H][C@]12CN(Cc3ccncc3)C[C@@]1([H])OCCN(S(C)(=O)=O)C2,5.322%,-34.4%

Once more, the final 6:

compound,Mtb growth Cornell,Mtb heat-shock
Cl.O=C(NC[C@@]1(COc2cnccn2)C[C@@H](O)[C@@H](O)C1)C1CC1,-15.26%,-13.39%
CCN(CC1CCCO1)C(=O)Nc1cccc(Cl)c1OC (stereo unspecified),-48%,-7.376%
COCc1cc(NCc2ccccc2OC)ncn1,-2.329%,-10.92%
Fc1ccccc1Oc1nccnc1C1CCN(C2CCOCC2)CC1,-17.49%,-0.4861%
CCOCCNC(=O)c1cccnc1Sc1cc(OC)ccc1OC,-25.34%,18.16%
O=C(O)C(F)(F)F.O=C(O)C(F)(F)F.[H][C@]12CN(Cc3ccncc3)C[C@@]1([H])OCCN(S(C)(=O)=O)C2,5.322%,-34.4%